Only a part is listed here, and it is no random draw.
compound: COC(=O)C#Cc1ccccc1 [methyl 3-phenylpropiolate]; experiment: log2 ratio of iodoacetamide-alkyne labeling of the cysteine site, DMSO over compound (competition); higher = stronger covalent engagement of the cysteine by the compound, active = 1 or more; conditions: 500 µM; treatment time 1 h; system: HEK293T cell lysate
How it was run: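 After 1 h at ambient temperature with vehicle or electrophile (500 µM), HEK293T lysate (2 mg/mL) was labelled for 1 h with iodoacetamide alkyne and clicked to sCIP-TMT reagents. Pooled samples were trypsin-digested overnight at 37 °C, streptavidin-enriched, acid-eluted and analysed by Orbitrap Eclipse LC-MS/MS with FAIMS, then quantified in FragPipe over three replicates with duplicate channels. A cysteine's log2 competition ratio is its mean control-channel over mean compound-channel reporter intensity. Cysteines quantified in only one replicate were not included.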

log2 ratio of iodoacetamide-alkyne labeling, inactive:
UniProt Q96JG6_C136 0.554
PSMD1 C806 (UniProt Q99460) 0.413
FUBP3 C148 (UniProt Q96I24) 0.191
RBM15 C926 (UniProt Q96T37) 0.375
TTC1 C66 (UniProt Q99614) 0.54
MED15 C660 (UniProt Q96RN5) 0.75
PBK C22 (UniProt Q96KB5) 0.282
ZFR C525 (UniProt Q96KR1) 0.266
VRK1 C250 (UniProt Q99986) -0.179
MYBBP1A C1046 (UniProt Q9BQG0) 0.245
UniProt Q99683_C928 0.343
FUBP3 C366 (UniProt Q96I24) 0.24
POP1 C666 (UniProt Q99575) -0.253
RBM15 C785 (UniProt Q96T37) 0.33
ADO C258 (UniProt Q96SZ5) 0.15
NCAPG C966 (UniProt Q9BPX3) 0.355
XPO6 C22 (UniProt Q96QU8) 0.218
ZFYVE21 C47 (UniProt Q9BQ24) 0.392
SRPK1 C455 (UniProt Q96SB4) 0.0406
SPEN C1066 (UniProt Q96T58) 0.234
STRBP C195 (UniProt Q96SI9) 0.3
CDK5RAP2 C683 (UniProt Q96SN8) 0.506
POP1 C705 (UniProt Q99575) 0.307
KIF2C C245 (UniProt Q99661) 0.243
UniProt Q96L50_C246 0.109
FNBP1 C609 (UniProt Q96RU3) -0.0223
UHRF1 C759 (UniProt Q96T88) 0.107
CPNE1 C30 (UniProt Q99829) -0.402
EHMT2 C596 (UniProt Q96KQ7) 0.247
SCLT1 C38 (UniProt Q96NL6) -0.0796
RNF2 C179 (UniProt Q99496) 0.263
MYBBP1A C623 (UniProt Q9BQG0) 0.231
RNF5 C27 (UniProt Q99942) 0.0657
CLCC1 C550 (UniProt Q96S66) 0.198
SPEN C1134 (UniProt Q96T58) 0.43
ZFR C812 (UniProt Q96KR1) 0.28

A stretch from further up:
log2 ratio of iodoacetamide-alkyne labeling, inactive:
PBK C22 (UniProt Q96KB5) 0.282
ZFR C525 (UniProt Q96KR1) 0.266
VRK1 C250 (UniProt Q99986) -0.179
MYBBP1A C1046 (UniProt Q9BQG0) 0.245
UniProt Q99683_C928 0.343
FUBP3 C366 (UniProt Q96I24) 0.24
POP1 C666 (UniProt Q99575) -0.253
RBM15 C785 (UniProt Q96T37) 0.33
ADO C258 (UniProt Q96SZ5) 0.15

Following part.

log2 ratio of iodoacetamide-alkyne labeling, active:
USP28 C142 (UniProt Q96RU2) 1.47

Reference: the supplement of paper PMC11006884
